At least one compound was matched to its structure with a doubt left.
Legend:
TR4 = molecular target: T1, TR4 (Homo sapiens, UniProt P49116); experiment: CD36-luc luciferase reporter assay, TR4 co-transfected into CV-1 cells; format: cell-based; parameters: pCMX-TR4 plasmids consist of the full length human TR4 gene subcloned into pCMX vector; expressed in transfected cells; host or cells: CV-1; conditions: 24 h; for TR4-induced CD36 transactivation (CD36-luc activity): 0.1, 0.5, 1 and 3 M in DMSO
T1 sequence (P49116 1-615 isoform P49116-2): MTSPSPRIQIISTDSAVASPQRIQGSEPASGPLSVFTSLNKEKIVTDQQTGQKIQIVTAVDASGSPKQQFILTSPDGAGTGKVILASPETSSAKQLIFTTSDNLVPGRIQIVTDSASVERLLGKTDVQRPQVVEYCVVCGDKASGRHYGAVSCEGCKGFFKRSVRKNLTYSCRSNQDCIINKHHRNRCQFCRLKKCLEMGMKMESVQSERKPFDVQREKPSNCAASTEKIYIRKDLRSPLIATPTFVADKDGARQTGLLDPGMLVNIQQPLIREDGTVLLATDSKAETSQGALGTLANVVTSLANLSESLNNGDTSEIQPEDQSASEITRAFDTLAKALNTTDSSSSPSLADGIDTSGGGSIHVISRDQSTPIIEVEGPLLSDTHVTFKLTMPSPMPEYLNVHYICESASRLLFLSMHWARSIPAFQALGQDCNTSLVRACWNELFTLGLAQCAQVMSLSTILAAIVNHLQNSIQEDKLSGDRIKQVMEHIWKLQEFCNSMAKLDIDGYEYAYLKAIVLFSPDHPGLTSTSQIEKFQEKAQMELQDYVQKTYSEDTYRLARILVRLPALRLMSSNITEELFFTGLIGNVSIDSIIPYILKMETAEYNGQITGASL
Description: After 24 h, cells were harvested for Luciferase activity. The relative luciferase activity was calculated while setting pCMX-TR4 in vehicle control as 1. (FIG. 6B) Protease protective peptide mapping were analyzed in liganded-PPARγ and TR4. […] The reaction was stopped by adding 2×SDS-sample buffer. The protease digestion pattern was resolved by gel electrophoresis in 12.5% (for PPARγ), and 16% (for TR4) SDS-PAGE. […] After 24 h, cells were harvested for Luciferase activity. The relative luciferase activity was calculated while setting pCMX-TR4 in vehicle control as 1.
Mouse macrophage RAW 264.7 cells, obtained from ATCC, were cultured in DMEM medium supplemented with 8% fetal bovine serum and 100 µg/ml penicillin-streptomycin and maintained on the petri-dishes. […] After 24 h, cells were harvested for luciferase assays.

PPARγ/RXR = molecular target: T2, PPARγ/RXR (Homo sapiens, UniProt P37231); experiment: CD36-luc luciferase reporter assay, PPARγ/RXR co-transfected into CV-1 cells; format: cell-based; conditions: 1, 10, 50, 100 and 250 µM in BSA, 24 h
T2 construct: expressed in transfected cells; host or cells: CV-1
T2 sequence (P37231 29-505 limits assumed): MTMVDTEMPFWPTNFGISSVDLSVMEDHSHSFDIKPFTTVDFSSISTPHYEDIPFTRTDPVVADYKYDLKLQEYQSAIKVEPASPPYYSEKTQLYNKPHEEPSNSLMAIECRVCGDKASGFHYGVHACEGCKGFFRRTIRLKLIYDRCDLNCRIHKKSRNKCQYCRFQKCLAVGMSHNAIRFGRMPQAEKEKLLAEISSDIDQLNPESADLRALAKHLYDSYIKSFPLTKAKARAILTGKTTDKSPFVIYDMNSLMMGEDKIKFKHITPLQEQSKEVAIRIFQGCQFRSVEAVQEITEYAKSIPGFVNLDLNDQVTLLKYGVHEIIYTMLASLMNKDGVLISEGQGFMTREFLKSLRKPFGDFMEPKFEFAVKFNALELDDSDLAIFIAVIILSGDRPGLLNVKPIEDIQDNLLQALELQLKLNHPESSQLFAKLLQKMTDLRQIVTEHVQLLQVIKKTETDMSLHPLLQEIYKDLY
T2 sequence (P19793 1-462 partner): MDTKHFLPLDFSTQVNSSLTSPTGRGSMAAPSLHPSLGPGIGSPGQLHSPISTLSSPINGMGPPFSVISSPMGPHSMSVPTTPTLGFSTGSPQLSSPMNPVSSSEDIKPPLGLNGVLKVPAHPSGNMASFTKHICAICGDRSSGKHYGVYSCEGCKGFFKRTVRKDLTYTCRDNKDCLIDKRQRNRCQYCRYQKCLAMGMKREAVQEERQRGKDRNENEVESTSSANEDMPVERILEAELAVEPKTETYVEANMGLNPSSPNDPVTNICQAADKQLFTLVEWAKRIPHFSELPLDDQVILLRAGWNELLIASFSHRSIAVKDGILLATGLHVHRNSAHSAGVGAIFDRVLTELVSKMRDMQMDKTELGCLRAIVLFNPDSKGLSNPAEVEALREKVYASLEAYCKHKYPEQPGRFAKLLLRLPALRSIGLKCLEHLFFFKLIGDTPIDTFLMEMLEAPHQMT

TR4-induced CD36 transactivation (CD36-luc activity) (TR4)	TR4-induced CD36 transactivation (CD36-luc activity) (TR4; listed as Rosiglitazone)	TR4-mediated CD36 expression (CD36-luc luciferase activity) (TR4; 1, 10, 50, 100 and 250 µM in BSA)	PPAR/RXR-mediated CD36 expression (CD36-luc luciferase activity) (PPARγ/RXR)	Compound
strongly promotes	dose-dependently activates			CN(CCOc1ccc(CC2SC(=O)NC2=O)cc1)c1ccccn1 (stereo not shown) [rosiglitazone]
		mildly induced	mildly induced	CC/C=C\C/C=C\C/C=C\C/C=C\C/C=C\CCCC(=O)O [EPA, eicosapentaenoic acid]

Reference: US8524455B2, “Methods and compositions related to TR4 ligand” (University of Rochester, priority 2009, dated 2013)
